Test results from the supplement of paper PMC12889115.
The other results are listed elsewhere or left out. Values are raw readings; no control value is given beside them.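 Primary screen: polymyxin B was added at a level permeabilizing Salmonella outer membranes while sparing inner membranes. DMSO wells, both with and without polymyxin B, established maximum growth. Plate-to-plate variation meant each plate was ranked on its own, and the lowest-OD600 compounds were selected as hits.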

Test system: Salmonella enterica serovar Typhimurium SL1344
Assay: bacterial growth OD600 after 18 h with compound and polymyxin B; higher = more bacterial growth (less inhibition)
Conditions: 50 µM, Mueller-Hinton broth

Compound | bacterial growth OD600 (polymyxin B 0.75 µg/mL) | bacterial growth OD600 (polymyxin B 1 µg/mL)
COc1cccc(N2CCN(C(=O)Cn3cc(NC(=O)Cc4ccccc4OC)cn3)CC2=O)c1 | 0.906 | 
COc1ccc(F)c(CC2(CCC(=O)NC3Cc4ccccc4C3)CCC(=O)N2)c1 (configuration not stated) | 0.91 | 
CCCc1cc(CNC(=O)c2ccc(N(C)C)nc2)on1 |  | 0.902
CCOC(=O)CCNC(=O)CCc1nnc(Cc2cccc(C)c2)o1 | 0.921 | 
CN(Cc1ccc(Oc2ccccc2)cc1)CC1(O)CCCN(C)C1=O (configuration not stated) |  | 0.898
O=C(NCc1ccc(Cl)s1)C1CCC(=O)N(CCc2cccc(F)c2)C1 (configuration not stated) |  | 0.66
CCCn1cc(CN2CCC(Oc3cc(OC)ccc3C(=O)NC3CC3)CC2)c(C)n1 |  | 1.24
COCCN1C(=O)CC(CC(=O)N2CCN(C3CCCCC3)C(=O)C2)(c2ccccc2OC)C1=O (configuration not stated) | 0.779 | 
CC(C)CCn1c(CN(C)CCc2ccccc2)cnc1S(=O)(=O)C(C)C |  | 0.357
CCOC(=O)N1CCC(N2CCCC(CNS(=O)(=O)c3ccc(OC)cc3)C2)CC1 (configuration not stated) |  | 1.07
CCOC(=O)N1CCN(C(=O)c2ccc(N3CCC(NCc4cccc(F)c4F)CC3)cc2)CC1 | 0.845 | 
O=C(NCC1CCCN(C(=O)c2cccnc2)C1)c1ccc(-c2ccccc2)cc1 (configuration not stated) |  | 0.823
COc1cccc(OC)c1-c1cnnc(N2CCC(C(C)=O)(c3ccccc3)CC2)n1 |  | 0.014
CCOC(=O)C1CCCCN1C1CCN(c2nc(C)c3ccc(OC)cc3n2)CC1 (configuration not stated) | 0.892 | 
CCN(CCn1cccn1)C(=O)c1cc(COc2cccc3cnccc23)on1 |  | 0.874
CC(C)CC(=O)Nc1ccnn1C1CCN(Cc2cc(CC(C)C)[nH]n2)CC1 |  | 1.23

Compound | bacterial growth OD600 (polymyxin B 0.75 µg/mL) | bacterial growth OD600 (polymyxin B 1 µg/mL)
Cc1ccc(C(=O)N2CCc3c(cnc(C)c3CNC(=O)c3ccccc3F)C2)c(C)c1 | 0.921 | 
CC(C)CN(C)C(=O)CC1(c2cccc(C(F)(F)F)c2)CC(=O)N(C2CC2)C1=O (configuration not stated) | 0.753 | 
CC(C)c1noc(-c2ccc(NCCOc3cccnc3)nc2)n1 |  | 0.995
Cc1nc(N2CCCCCCC2)ncc1C(C)NCc1cccnc1 (configuration not stated) |  | 0.048
Cc1cccc(C(=O)NC2CC(=O)N(Cc3cccc(F)c3)C2)n1 (configuration not stated) |  | 0.804
O=C(CCN1CCCO1)N1CCc2[nH]nc(-c3cccc4ccccc34)c2C1 | 0.772 | 
CCOC(=O)C1(C/C=C/c2ccccc2)CCCN(C(=O)CSc2nnc(C)s2)C1 (configuration not stated) |  | 0.643
C=CCC(O)(CC=C)CNC1CCN(c2ccc(C(=O)NCc3ccccc3F)cc2)CC1 | 0.935 | 
O=C1N(Cc2cccc(F)c2F)CCCC1(O)CNCC1CCCCC1 (configuration not stated) | 0.882 | 
C=CCN(Cc1cn(-c2ccccc2)nc1-c1cccc(OC)c1)C1CCS(=O)(=O)C1 (configuration not stated) |  | 0.608
Fc1ccccc1Oc1ncccc1CNCc1cccn1-c1cccnc1 | 0.783 | 
CN(CCC1CCCCO1)C(=O)c1csc2nc(-c3cccc(F)c3)cn12 (configuration not stated) |  | 1.17
O=C(CSc1ccccc1)N1CCc2onc(-c3ccc(Cl)cc3)c2C1 | -0.001 | 
Cn1cc(CN2CCCC(C(=O)c3nccn3C)C2)c(-c2ccc3c(c2)OCCO3)n1 (configuration not stated) |  | 1
O=C(NCc1cccs1)c1cc(COc2ccccc2)[nH]n1 | 0.424 | 
O=C(NCc1ccccn1)C1CCCN(C2CCN(Cc3ccccc3)CC2)C1 (configuration not stated) | 0.817 | 

2 compounds picked at random from the list so far:
Compound | bacterial growth OD600 (polymyxin B 0.75 µg/mL) | bacterial growth OD600 (polymyxin B 1 µg/mL)
CN(CCC1CCCCO1)C(=O)c1csc2nc(-c3cccc(F)c3)cn12 (configuration not stated) |  | 1.17
CC(C)c1noc(-c2ccc(NCCOc3cccnc3)nc2)n1 |  | 0.995
